No constants are given. Whether binding was seen depends on the method and setting. In cells and extracts the contact can be indirect. A yes stands for co-enrichment or nearness to the bait. Other partners may have been found.
Target: Enterovirus 71 3C protease, FLAG-tagged (3C-FLAG) (human enterovirus 71 (EV71)) (UniProt Q65900)
Assay: affinity purification with mass spectrometry; lysates of 10^7 U87 MG cells transfected with the 3C-FLAG plasmid, IP lysis buffer with 1 mM PMSF; anti-FLAG antibody and protein A/G agarose beads, 4 °C, 3 h; control: nonspecific IgG; SDS-PAGE gel slice, in-gel trypsin digestion, LC-MS/MS

Sequences of proteins named here, by UniProt entry; tags and fusion partners are left off. Residues count along the entry.
UniProt Q65900, residues 1549-1731: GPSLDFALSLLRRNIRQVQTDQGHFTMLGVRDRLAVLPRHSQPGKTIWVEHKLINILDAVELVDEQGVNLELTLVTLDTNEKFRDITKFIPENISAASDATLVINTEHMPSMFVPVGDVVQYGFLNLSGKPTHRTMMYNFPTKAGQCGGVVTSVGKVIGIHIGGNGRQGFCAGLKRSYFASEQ
UniProt Q14764: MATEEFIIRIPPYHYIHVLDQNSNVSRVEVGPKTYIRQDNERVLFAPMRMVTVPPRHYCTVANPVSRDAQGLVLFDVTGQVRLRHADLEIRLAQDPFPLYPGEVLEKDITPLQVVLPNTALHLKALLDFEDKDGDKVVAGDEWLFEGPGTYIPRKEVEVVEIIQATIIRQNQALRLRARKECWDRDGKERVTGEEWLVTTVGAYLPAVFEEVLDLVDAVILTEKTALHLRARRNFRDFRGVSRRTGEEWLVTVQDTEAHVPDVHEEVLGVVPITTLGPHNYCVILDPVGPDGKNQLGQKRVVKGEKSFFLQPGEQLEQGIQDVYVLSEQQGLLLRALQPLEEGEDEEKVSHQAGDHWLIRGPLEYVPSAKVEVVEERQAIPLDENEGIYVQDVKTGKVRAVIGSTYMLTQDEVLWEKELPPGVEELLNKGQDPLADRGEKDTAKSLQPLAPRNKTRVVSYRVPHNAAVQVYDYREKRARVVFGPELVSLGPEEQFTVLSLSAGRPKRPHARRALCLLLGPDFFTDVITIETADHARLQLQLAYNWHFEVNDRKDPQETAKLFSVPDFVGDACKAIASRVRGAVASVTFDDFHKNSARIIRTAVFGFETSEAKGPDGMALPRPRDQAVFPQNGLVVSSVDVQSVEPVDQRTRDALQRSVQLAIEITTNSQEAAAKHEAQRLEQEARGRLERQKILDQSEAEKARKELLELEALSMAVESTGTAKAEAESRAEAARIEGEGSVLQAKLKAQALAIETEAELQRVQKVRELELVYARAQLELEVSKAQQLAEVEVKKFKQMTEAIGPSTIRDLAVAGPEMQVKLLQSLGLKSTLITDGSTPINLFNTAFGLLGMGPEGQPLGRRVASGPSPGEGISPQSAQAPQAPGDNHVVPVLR

major vault protein (MVP) (from UniProt Q14764 1-893)
binding: binds

Source: article PMC12062448
